The nature of this series: peptide synthesis. Conditions: whole synthesis.

On to “N-acetyl-D-Lys(ε-biotin)-D-Arg-D-Arg-D-Arg-D-Gln-D-Arg-D-Arg-D-Lys-D-Lys-D-Arg-NH2”, for which the “final LC-MS purity” value was more than 99%.

The record behind these values is patent US20030158089A1 (priority 2002, published 2003).
